Results taken from PubChem BioAssay AID624297 (National Center for Advancing Translational Sciences (NCATS), 2012).
The whole screen tested about 340,000 compounds, of which about 6,200 (1.8%) were called active. The shares of active, inactive and inconclusive entries below differ from those in the screen. Calls come from the whole dose curve; as a rule, active = well fitted activation curve with a large enough effect; inconclusive = small, poorly fitted or top-dose-only effect; inactive = no such curve, though single readings can be large or run the other way. Potencies of inconclusive entries are doubtful fits and often do not repeat.

assay: A quantitative high throughput screen for small molecules that induce DNA re-replication in SW480 colon adenocarcinoma cells.; note: nearly all actives have a fitted effect of over 55% in size; for re-replication activation: % of control where 0% means no effect; conditions: Hoechst DNA content imaging, 48 h; re-replication activation: at 46.1 µM (top of the series) unless noted
Method in brief: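 Quantitative HTS format with DMSO vehicle controls; 48 hr drug incubation at 37 C, then 40 min Hoechst staining and scanning imager measurement at 405 nm excitation.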
Potency is the fitted concentration of half-maximal effect.

Compound | Potency | re-replication activation
O=C(CCNc1cccc(Cl)c1)c1cccs1 | inconclusive: 29.1 µM [activator, single point] | 
COc1ccc(C(=O)Nc2cccnc2Cl)cc1OC | inconclusive: 29.1 µM [activator, single point] | 
CC1CCN(C(=O)c2ccc(NS(C)(=O)=O)cc2)CC1 |  | inactive: -6.07%
CCOC(=O)c1cn(CC(=O)Nc2ccc(C(C)C)cc2)nn1 | inconclusive: 4.11 µM [activator, partial curve, poor fit] | 
COc1cccc(/C=N/NC(=S)Nc2cccc(S(=O)(=O)N(C)C)c2)c1 |  | inactive: 4.65%
Cn1cc([N+](=O)[O-])c(C(=O)Nc2ccc(-c3nc4ccccc4o3)cc2)n1 | inconclusive: 8.2 µM [activator, single point] | 
CCOc1ccc(NC(=O)CCC(=O)N/N=C(\C)c2cccs2)cc1 | inconclusive: 11.6 µM [activator, partial curve, poor fit] | 
CCC(=O)Nc1ccc(NC(=O)c2ccc3c(c2)OCO3)cc1 |  | inactive: 0.692%
CCOC(=O)C(=CNc1ccc2c(c1)c1ccccc1n2CC)C(=O)OCC | inconclusive: 29.1 µM [activator, single point] | 
C/C(=N/NS(=O)(=O)c1ccc(Cl)cc1)c1ccncc1 |  | inactive: -26.1%
CCc1ccc(C(=O)N2CCN(c3ccc(NC(=O)c4cccnc4)cc3)CC2)cc1 | inconclusive: 29.1 µM [activator, partial curve, poor fit] | 
O=C(c1ccc([N+](=O)[O-])cc1Cl)N1CCN(c2ccccn2)CC1 | inconclusive: 6.51 µM [activator, single point] | 
COc1ccccc1N1C(=O)CC(Nc2ccc(N3CCOCC3)cc2)C1=O (stereo unspecified) |  | inactive: -7.08%
COc1ccc(CN(C)C(=O)c2cc(-c3ccc(C)cc3C)nc3ccccc23)c(OC)c1OC | inconclusive: 20.6 µM [activator, single point] | 
CCCCCn1c(N2CCC(Cc3ccccc3)CC2)nc2c1c(=O)[nH]c(=O)n2C |  | inactive: 0.106%
O=C(N/N=C/c1cccc(NC(=O)c2ccc(Cl)cc2)c1)c1cccc(O)c1 | inconclusive: 29.1 µM [activator, single point] | 
COc1ccc(NC(=O)CC2SC(N3CCOCC3)=NC2=O)cc1OC (stereo unspecified) | inconclusive: 16.4 µM [activator, single point] | 
CC1(C)CC(=O)C(N=Nc2c(Cl)cc(Cl)cc2Cl)=C(O)C1 |  | inactive: 1.83%
CCOc1ccc(CCNS(=O)(=O)c2ccc(-c3ccc(=O)[nH]n3)o2)cc1OCC | inconclusive: 11.6 µM [activator, partial curve, poor fit] | 
O=C(CCNC(=O)c1ccccc1Cl)Nc1nnc(C2CC2)s1 |  | inactive: -1.8%
Cc1ccc(C)c(S(=O)(=O)N2CCCCC2CCNC(=O)C(=O)NCc2ccco2)c1 (stereo unspecified) | inconclusive: 29.1 µM [activator, single point] | 
COc1ccc(/C=C2\C(=O)c3ccccc3OC2c2ccccc2)cc1 (stereo unspecified) | inconclusive: 20.6 µM [activator, single point] | 

Compound | Potency | re-replication activation
Cc1ccccc1NC(=O)/C(C#N)=C/c1ccsc1 |  | inactive: 0.238%
Cc1nnc(N/N=C/c2c(Cl)cccc2Cl)n1N | inconclusive: 23.1 µM [activator, partial curve, poor fit] | 
Cc1cccc(C)c1N(CC(=O)N1CCOCC1)S(C)(=O)=O |  | inactive: -5.26%
CSc1ccc(CNC(=O)CCn2ccc3cc(S(=O)(=O)N4CCCC4)ccc32)cc1 | inconclusive: 20.6 µM [activator, partial curve, poor fit] | 
Cc1ccc(S(=O)(=O)N/N=C/c2cn(C)nc2C)cc1 |  | inactive: 0.638%
N#C/C(=C\c1c(F)cccc1Cl)c1nn(-c2ccccc2)c(-n2cccc2)c1C#N |  | inactive: -45.7%
CC(C)CC(=O)NC(=S)Nc1nc(-c2cccc3ccccc23)cs1 | inconclusive: 29.1 µM [activator, single point] | 
CN(C(=O)CSC(=O)c1ccccc1)c1ccccc1 |  | inactive: -9.84%
CC(C)=CC(=O)Nc1nc2ccc([N+](=O)[O-])cc2s1 | inconclusive: 20.6 µM [activator, single point] | 
O=C(O)Cn1c2c(c3ccccc31)CCCC2 | inconclusive: 14.6 µM [activator, single point] | 
COc1ccc(-c2cc(C(F)(F)F)n3nc(C(=O)NCc4ccco4)cc3n2)cc1OC | inconclusive: 18.4 µM [activator, single point] | 
Cc1ccc(S(=O)(=O)N(CCCO)CC(O)CON=C2c3ccccc3-c3ccccc32)cc1 (stereo unspecified) | inconclusive: 15.8 µM [activator, single point] | 
COc1ccc(-c2cc(C(F)(F)F)n3nc(C(=O)Nc4c(C)n(C)n(-c5ccccc5)c4=O)c(Cl)c3n2)cc1 | inconclusive: 6.51 µM [activator, single point] | 
O=C1/C(=C/c2ccccc2)CCc2ccc(Cl)nc21 | inconclusive: 29.1 µM [activator, single point] | 
NC(=O)c1ccc(NCCc2ccccc2)c([N+](=O)[O-])c1 | inconclusive: 0.58 µM [activator, full curve, poor fit] | 
Cc1ccc(NS(=O)(=O)c2cccc(C(=O)Nc3cc(C)on3)c2)cc1 | inconclusive: 1.16 µM [activator, partial curve, poor fit] | 
O=C1CC(/C=C/c2ccc(Cl)cc2)=Nc2ccccc2N1 | inconclusive: 16.4 µM [activator, single point] | 
Cc1ccc(CSCC(=O)N2CCN(Cc3ccc4c(c3)OCO4)CC2)cc1 | inconclusive: 25.1 µM [activator, single point] | 
CCCc1c(C(=O)N/N=C/c2cccnc2)nnn1-c1nonc1N | inconclusive: 10.3 µM [activator, single point] | 
N/C(=N\NS(=O)(=O)c1ccccc1)c1ccccn1 | inconclusive: 4.11 µM [activator, full curve, poor fit] | 
COc1ccc(N2C(=O)CC(Sc3nnc(-c4ccccc4F)n3C)C2=O)cc1 (stereo unspecified) | inconclusive: 25.9 µM [activator, single point] | 
Cc1ccc(NS(=O)(=O)c2ccc(OCC(=O)Nc3cccc([N+](=O)[O-])c3)c(C)c2)cc1 |  | inactive: 14%

Reprinted at random: 3 records from the list
Compound | Potency | re-replication activation
CCOC(=O)c1cn(CC(=O)Nc2ccc(C(C)C)cc2)nn1 | inconclusive: 4.11 µM [activator, partial curve, poor fit] | 
N#C/C(=C\c1c(F)cccc1Cl)c1nn(-c2ccccc2)c(-n2cccc2)c1C#N |  | inactive: -45.7%
O=C(N/N=C/c1cccc(NC(=O)c2ccc(Cl)cc2)c1)c1cccc(O)c1 | inconclusive: 29.1 µM [activator, single point] | 

Next entries follow:

Compound | Potency | re-replication activation
CC(C)CC(c1nnnn1Cc1ccco1)N1CCN(c2cccc(Cl)c2)CC1 (stereo unspecified) | inconclusive: 29.1 µM [activator, single point] | 
O=S(=O)(c1ccccc1)N1CCN(c2ncnc3scc(-c4ccccc4)c23)CC1 | inconclusive: 20.6 µM [activator, single point] | 
COc1ccc(NC(=O)CSc2nc3[nH]ncc3c(=O)[nH]2)c(OC)c1 |  | inactive: 2.85%
CN(CCc1ccccc1)C(=O)c1ccc(NC(=O)Cc2ccc(NC(=O)C3CCN(C(=O)C4CCCC4)CC3)cc2)cc1 | inconclusive: 6.51 µM [activator, single point] | 
CC(C)C[C@@H](CNCC(=O)[C@H](CC(=O)O)NC(=O)c1[nH]cnc1C(=O)N[C@H](CN)CC(C)C)NC(=O)c1nc[nH]c1C(=O)N[C@@H](C)C(=O)O |  | inactive: -7.87%
Cc1[nH]c(C)c(S(=O)(=O)NCc2ccco2)c1C(=O)N1CCCCC1 | inconclusive: 18.4 µM [activator, single point] | 
Cc1cccc(NC(=O)CSc2cccc3cccnc23)c1 | inconclusive: 29.1 µM [activator, single point] | 
Cc1cnc(C(=O)NC2CC(C)(C)Cc3c2cnn3-c2ccccc2)cn1 (stereo unspecified) |  | inactive: 2.73%
CN1CCN(C2=C(Cl)C(=O)N(C3CCCCC3)C2=O)CC1 | inconclusive: 18.4 µM [activator, single point] | 
COc1ccc(NS(=O)(=O)c2csc(C(=O)N3CCCC3)c2)c(OC)c1 | inconclusive: 16.4 µM [activator, single point] | 
CC(=O)c1cc(CN2CCN(C(C)C)C(CCO)C2)cs1 (stereo unspecified) | inconclusive: 6.51 µM [activator, partial curve, poor fit] | 
CCCCCN1CSC(=S)N(Cc2ccccc2)C1 | inconclusive: 29.1 µM [activator, single point] | 
O=S(=O)(c1cccc2ccccc12)N1CCC2CC1c1cc(-c3ccc(F)cc3)ccc12 (stereo unspecified) | inconclusive: 0.58 µM [activator, partial curve, poor fit] | 
CCN=c1scc(-c2ccc(F)cc2)n1/N=C/c1ccccn1 |  | inactive: -88.8%
Cc1ccc(NC(=O)Nc2ccc(Cl)cc2)c(Br)c1 |  | inactive: 3.3%
COC1CC2CCC(C)[C@](O)(O2)C(=O)C(=O)N2CCCCC2C(=O)OC(C(C)CC2CCC(O)C(OC)C2)CC(=O)C(C)/C=C(/C)C(O)C(OC)C(=O)C(C)CC(C)C=CC=C/C=C\1C (stereo partly specified) | inconclusive: 33.5 µM [activator, single point] | 
CCOC(=O)C1=C(CN2CC(C)CC(C)C2)NC(=O)NC1c1ccc2c(c1)OCO2 (stereo unspecified) | inconclusive: 29.1 µM [activator, single point] | 
CCCOc1ccc(NC(=O)c2cc3cc(C)ccc3[nH]2)cc1 | inconclusive: 14.6 µM [activator, single point] | 
Cc1onc(-c2c(Cl)cccc2Cl)c1C(=O)N1CCN(c2ccc(F)cc2)CC1 | inconclusive: 29.1 µM [activator, partial curve, poor fit] | 
O=C(CCOc1ccccc1)Nc1ccnn1C1CCN(C(=O)CCC(F)(F)F)CC1 |  | inactive: -0.575%
Cc1ccc(C(=O)CSc2nc(C)cc(=O)[nH]2)cc1 | inconclusive: 6.51 µM [activator, partial curve, poor fit] | 
Cc1cc(C)nc(N/N=C/c2ccccc2OCc2cccc(Br)c2)n1 | inconclusive: 29.1 µM [activator, single point] | 
